# Where a name gives a salt, the structure may show the parent alone. The list shows a part of the results. Single values are uncertain here, since repeats match poorly.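 ReNCell VM, a human fetal ventral-midbrain neural progenitor line, was differentiated without mitogens. Blinded raters scored images stained for doublecortin (early neurons) or tyrosine hydroxylase (dopaminergic neurons) against untreated wells (0 = no change). Scores were averaged across repeats and both raters, and compounds averaging 2 or more were selected as hits for retesting.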
# What was measured:
# ReNCell VM [1] = assay: neuronal differentiation score (DCX+ cell fraction vs untreated, manual image score) (score (-3 to 3)); higher = more neuronal differentiation; conditions: 2 uM, 2 weeks
# ReNCell VM [2] = assay: dopaminergic neuron differentiation score (TH+ cell fraction vs untreated, manual image score) (score (0 to 3)); higher = more TH+ dopaminergic neuron differentiation; conditions: 2 uM, 4 weeks, BDNF 10 ng/ml + GDNF 10 ng/ml
structure (smiles),measurement,setting,value
CCCCCCc1ccc(O)cc1O.Nc1c2ccccc2nc2ccccc12,neuronal differentiation score,ReNCell VM [1]; library: Spectrum,inactive: 0
same,dopaminergic neuron differentiation score,ReNCell VM [2]; library: Spectrum,inactive: 0
COc1cc(-c2ccc(=O)[nH]n2)ccc1OC(F)F,neuronal differentiation score,ReNCell VM [1]; library: Spectrum,inactive: 0
same,dopaminergic neuron differentiation score,ReNCell VM [2]; library: Spectrum,inactive: 0
CC(CCCCC(=O)Nc1ccc(C(F)(F)F)cc1)NCCc1cnc[nH]1 (stereo not drawn) [HTMT dimaleate],neuronal differentiation score,ReNCell VM [1]; library: Tocriscreen,inactive: 0
same,dopaminergic neuron differentiation score,ReNCell VM [2]; library: Tocriscreen,inactive: 0
N#Cc1c(-c2ccccc2)no[n+]1[O-] [4-Phenyl-3-furoxancarbonitrile],neuronal differentiation score,ReNCell VM [1]; library: LOPAC,inactive: 0
same,dopaminergic neuron differentiation score,ReNCell VM [2]; library: LOPAC,inactive: 0
CC(=O)OCC1=C(C(=O)O)N2C(=O)[C@@H](NC(=O)Cc3cccs3)[C@H]2SC1 [Cephalothin sodium],neuronal differentiation score,ReNCell VM [1]; library: LOPAC,inactive: 1
same,dopaminergic neuron differentiation score,ReNCell VM [2]; library: LOPAC,inactive: 0
O=C(O)/C=C/C(O)c1ccc(Cl)cc1 (stereo not drawn),neuronal differentiation score,ReNCell VM [1]; library: LOPAC,inactive: 0
same,dopaminergic neuron differentiation score,ReNCell VM [2]; library: LOPAC,inactive: 0
CC1(C)C[C@@H]1C(=O)N/C(=C\CCCCSC[C@H](N)C(=O)O)C(=O)O [Cilastatin sodium],neuronal differentiation score,ReNCell VM [1]; library: Tocriscreen,inactive: 0
same,dopaminergic neuron differentiation score,ReNCell VM [2]; library: Tocriscreen,inactive: 0
C[n+]1cc2c3c(ccc2c2ccc4cc5c(cc4c21)OCO5)OCO3,neuronal differentiation score,ReNCell VM [1]; library: Spectrum,inactive: 0
same,dopaminergic neuron differentiation score,ReNCell VM [2]; library: Spectrum,inactive: 0
CC1=CCc2c(cc3oc(C)cc(=O)c3c2O)OC1,neuronal differentiation score,ReNCell VM [1]; library: Spectrum,inactive: 0
same,dopaminergic neuron differentiation score,ReNCell VM [2]; library: Spectrum,inactive: 0
O=C(O)c1cc(-c2ccc(F)cc2F)ccc1O [Diflunisal],neuronal differentiation score,ReNCell VM [1]; library: Prestwick,inactive: 0
same,dopaminergic neuron differentiation score,ReNCell VM [2]; library: Prestwick,inactive: 0
Cc1cc2nc3c(=O)[nH]c(=O)nc-3n(CC(O)C(O)C(O)COP(=O)(O)O)c2cc1C (stereo not drawn),neuronal differentiation score,ReNCell VM [1]; library: Spectrum,inactive: 0
same,dopaminergic neuron differentiation score,ReNCell VM [2]; library: Spectrum,inactive: 0
COc1cc(Br)c(S(=O)(=O)Nc2ccc(Cl)c(O[C@@H]3CCN(C)C3)c2)cc1OC,neuronal differentiation score,ReNCell VM [1]; library: Tocriscreen,inactive: 0
same,dopaminergic neuron differentiation score,ReNCell VM [2]; library: Tocriscreen,inactive: 0
O=C(O)Cc1ccc(OCCNC[C@H](O)c2ccccc2)cc1 [ZD 2079 hydrochloride],neuronal differentiation score,ReNCell VM [1]; library: Tocriscreen,inactive: 0
same,dopaminergic neuron differentiation score,ReNCell VM [2]; library: Tocriscreen,inactive: 0
CC[C@H]1OC(=O)[C@H](C)[C@@H](O[C@H]2C[C@@](C)(OC)[C@@H](O)[C@H](C)O2)[C@H](C)[C@@H](O[C@@H]2O[C@H](C)C[C@H](N(C)C)[C@H]2O)[C@](C)(O)C[C@@H](C)CN(C)[C@H](C)[C@@H](O)[C@]1(C)O,neuronal differentiation score,ReNCell VM [1]; library: Spectrum,inactive: 0
same,dopaminergic neuron differentiation score,ReNCell VM [2]; library: Spectrum,inactive: 0
COc1ccc(O)cc1,neuronal differentiation score,ReNCell VM [1]; library: Spectrum,inactive: 0
same,dopaminergic neuron differentiation score,ReNCell VM [2]; library: Spectrum,inactive: 0
CC(Cc1ccc(O)c(O)c1)(NN)C(=O)O [(S)-(-)-Carbidopa],neuronal differentiation score,ReNCell VM [1]; library: Tocriscreen,inactive: 0
same,dopaminergic neuron differentiation score,ReNCell VM [2]; library: Tocriscreen,inactive: 0
Nc1nccs1,neuronal differentiation score,ReNCell VM [1]; library: Spectrum,inactive: 0
same,dopaminergic neuron differentiation score,ReNCell VM [2]; library: Spectrum,inactive: 0
COc1cc2nc(N(C)CCCNC(=O)C3CCCO3)nc(N)c2cc1OC (stereo not drawn),neuronal differentiation score,ReNCell VM [1]; library: Spectrum,inactive: 0
same,dopaminergic neuron differentiation score,ReNCell VM [2]; library: Spectrum,inactive: 0
c1ccc(N2CCN(Cc3nc4ccccc4[nH]3)CC2)nc1 [ABT 724 trihydrochloride],neuronal differentiation score,ReNCell VM [1]; library: Tocriscreen,inactive: 0
same,dopaminergic neuron differentiation score,ReNCell VM [2]; library: Tocriscreen,inactive: 0
CC=CC(=O)N(CC)c1ccccc1C [Crotamiton],neuronal differentiation score,ReNCell VM [1]; library: Prestwick,inactive: 0
same,dopaminergic neuron differentiation score,ReNCell VM [2]; library: Prestwick,inactive: 0
COC(=O)[C@H](c1ccccc1Cl)N1CCc2sccc2C1,neuronal differentiation score,ReNCell VM [1]; library: Spectrum,inactive: 0
same,dopaminergic neuron differentiation score,ReNCell VM [2]; library: Spectrum,inactive: 0
CCCCCCCC/C=C\CCCCCCCC(=O)O.NCCO,neuronal differentiation score,ReNCell VM [1]; library: Spectrum,inactive: 0
same,dopaminergic neuron differentiation score,ReNCell VM [2]; library: Spectrum,inactive: 0
C[C@@H]1C/C=C/C=C/C=C/C=C/[C@H](O[C@@H]2O[C@H](C)[C@@H](O)[C@H](N)[C@@H]2O)C[C@@H]2O[C@](O)(C[C@@H](O)C[C@H]3O[C@@H]3/C=C/C(=O)O1)C[C@H](O)[C@H]2C(=O)O,neuronal differentiation score,ReNCell VM [1]; library: Spectrum,inactive: 0
same,dopaminergic neuron differentiation score,ReNCell VM [2]; library: Spectrum,inactive: 0
CNCCCC1c2ccccc2C=Cc2ccccc21,neuronal differentiation score,ReNCell VM [1]; library: Spectrum,inactive: 0
same,dopaminergic neuron differentiation score,ReNCell VM [2]; library: Spectrum,inactive: 0
CC1CN(S(=O)(=O)c2cccc3cnccc23)CCN1 (stereo not drawn),neuronal differentiation score,ReNCell VM [1]; library: LOPAC,inactive: 0
same,dopaminergic neuron differentiation score,ReNCell VM [2]; library: LOPAC,inactive: 0
"CCCn1c(=O)c2c(ncn2C)n(CCC)c1=O [1,3-Dipropyl-7-methylxanthine]",neuronal differentiation score,ReNCell VM [1]; library: LOPAC,inactive: 1
same,dopaminergic neuron differentiation score,ReNCell VM [2]; library: LOPAC,inactive: 0
Cc1c(Nc2ncccc2C(=O)O)cccc1C(F)(F)F [Flunixin meglumine],neuronal differentiation score,ReNCell VM [1]; library: Prestwick,active: 2
same,dopaminergic neuron differentiation score,ReNCell VM [2]; library: Prestwick,inactive: 0
O=C1CC[C@]23/C=C/C(=O)NCCCCNCCCNC(=O)/C=C/c4ccc(c2c4)O[C@@H]3C1,neuronal differentiation score,ReNCell VM [1]; library: Spectrum,inactive: 0
same,dopaminergic neuron differentiation score,ReNCell VM [2]; library: Spectrum,inactive: 0
O=C(NCC(O)CO)c1c(I)c(C(=O)NCC(O)CO)c(I)c(N(CCO)C(=O)CO)c1I (stereo not drawn),neuronal differentiation score,ReNCell VM [1]; library: Spectrum,inactive: 0
same,dopaminergic neuron differentiation score,ReNCell VM [2]; library: Spectrum,inactive: 0
N=C(N)NC(=O)Cc1c(Cl)cccc1Cl,neuronal differentiation score,ReNCell VM [1]; library: Spectrum,inactive: 0
same,dopaminergic neuron differentiation score,ReNCell VM [2]; library: Spectrum,inactive: 0
Oc1ccc(C2CNCCc3c2cc(O)c(O)c3Cl)cc1 (stereo not drawn) [Fenoldopam bromide],neuronal differentiation score,ReNCell VM [1]; library: LOPAC,inactive: 0
same,dopaminergic neuron differentiation score,ReNCell VM [2]; library: LOPAC,inactive: 0
O=C1O[C@H]([C@@H](O)CO)C(O)=C1O,neuronal differentiation score,ReNCell VM [1]; library: Spectrum,inactive: 0
same,dopaminergic neuron differentiation score,ReNCell VM [2]; library: Spectrum,inactive: 0
CC1=C(/C=C/C(=C/C=C/C(C)=C/C(=O)O)c2ccc(C)cc2)C(C)(C)CCC1,neuronal differentiation score,ReNCell VM [1]; library: Tocriscreen,inactive: 0
same,dopaminergic neuron differentiation score,ReNCell VM [2]; library: Tocriscreen,inactive: 0
CC(C)=CCC[C@@H](C)[C@H]1CC[C@@]2(C)C3=C(CC[C@]12C)[C@@]1(C)CC[C@H](O)C(C)(C)[C@@H]1CC3,neuronal differentiation score,ReNCell VM [1]; library: Spectrum,inactive: 1
same,dopaminergic neuron differentiation score,ReNCell VM [2]; library: Spectrum,inactive: 0

# Given tab-delimited: entries from further up.
structure (smiles)	measurement	setting	value
CC(CCCCC(=O)Nc1ccc(C(F)(F)F)cc1)NCCc1cnc[nH]1 (stereo not drawn) [HTMT dimaleate]	neuronal differentiation score	ReNCell VM [1]; library: Tocriscreen	inactive: 0
same	dopaminergic neuron differentiation score	ReNCell VM [2]; library: Tocriscreen	inactive: 0

# — the supplement of paper PMC4635364
